Reference: the supplement of paper PMC8728848
This is one part of the list.

What was measured:
Experiment in all cases: glycan array binding signal (z-score within array); higher = stronger binding
Details in all cases: glycan notation: IUPAC condensed, linker removed
Gal(a1-6)Glc = molecular target: Gal(a1-6)Glc
How it was run: (§1)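 Glycan array data were curated from 3228 arrays in the Consortium for Functional Glycomics database and kept only where the protein sequence was available. Glycan names were converted to IUPAC-condensed notation, and columns mapping to the same glycan were averaged. The binding signal is a within-array Z-score, averaged across arrays of the same protein sequence at different concentrations or buffers and across linkers. Negative Z-scores can be read as non-binding.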

Gal(b1-2)Gal = molecular target: Gal(b1-2)Gal
How it was run: as §1

Gal(b1-3)Gal = molecular target: Gal(b1-3)Gal
How it was run: as §1

Gal(b1-3)Gal(b1-4)GlcNAc = molecular target: Gal(b1-3)Gal(b1-4)GlcNAc
How it was run: as §1

Gal(b1-3)GalNAc = molecular target: Gal(b1-3)GalNAc
How it was run: as §1

[1] = molecular target: Gal(b1-3)GalNAc(a1-3)[Fuc(a1-2)]Gal(b1-4)Glc
How it was run: as §1

[2] = molecular target: Gal(b1-3)GalNAc(a1-3)[Fuc(a1-2)]Gal(b1-4)GlcNAc
How it was run: as §1

Gal(b1-3)GalNAc(b1-3)Gal = molecular target: Gal(b1-3)GalNAc(b1-3)Gal
How it was run: as §1

[3] = molecular target: Gal(b1-3)GalNAc(b1-3)Gal(a1-4)Gal(b1-4)Glc
How it was run: as §1

[4] = molecular target: Gal(b1-3)GalNAc(b1-4)Gal(b1-4)Glc
How it was run: as §1

[5] = molecular target: Gal(b1-3)GalNAc(b1-4)[Neu5Ac(a2-3)]Gal(b1-4)Glc
How it was run: as §1

Gal(b1-3)GlcNAc = molecular target: Gal(b1-3)GlcNAc
How it was run: as §1

[6] = molecular target: Gal(b1-3)GlcNAc(a1-3)Gal(b1-4)GlcNAc
How it was run: as §1

[7] = molecular target: Gal(b1-3)GlcNAc(a1-6)Gal(b1-4)GlcNAc
How it was run: as §1

Gal(b1-3)GlcNAc(b1-2)Man = molecular target: Gal(b1-3)GlcNAc(b1-2)Man
How it was run: as §1

[8] = molecular target: Gal(b1-3)GlcNAc(b1-2)Man(a1-3)[Gal(b1-3)GlcNAc(b1-2)Man(a1-6)]Man(b1-4)GlcNAc(b1-4)GlcNAc
How it was run: as §1

[9] = molecular target: Gal(b1-3)GlcNAc(b1-2)Man(a1-3)[Gal(b1-3)GlcNAc(b1-2)Man(a1-6)]Man(b1-4)GlcNAc(b1-4)[Fuc(a1-6)]GlcNAc
How it was run: as §1

[10] = molecular target: Gal(b1-3)GlcNAc(b1-2)Man(a1-3)[GlcNAc(b1-4)][Gal(b1-3)GlcNAc(b1-2)Man(a1-6)]Man(b1-4)GlcNAc(b1-4)GlcNAc
How it was run: as §1

[11] = molecular target: Gal(b1-3)GlcNAc(b1-2)[Gal(b1-3)GlcNAc(b1-6)]Man(a1-6)[Gal(b1-3)GlcNAc(b1-2)Man(a1-3)]Man(b1-4)GlcNAc(b1-4)GlcNAc
How it was run: as §1

[12] = molecular target: Gal(b1-3)GlcNAc(b1-3)Gal(b1-3)GlcNAc
How it was run: as §1

[13] = molecular target: Gal(b1-3)GlcNAc(b1-3)Gal(b1-4)Glc
How it was run: as §1

[14] = molecular target: Gal(b1-3)GlcNAc(b1-3)Gal(b1-4)GlcNAc
How it was run: as §1

[15] = molecular target: Gal(b1-3)GlcNAc(b1-3)Gal(b1-4)GlcNAc(b1-2)Man(a1-3)[Gal(b1-3)GlcNAc(b1-3)Gal(b1-4)GlcNAc(b1-2)Man(a1-6)]Man(b1-4)GlcNAc(b1-4)GlcNAc
How it was run: as §1

[16] = molecular target: Gal(b1-3)GlcNAc(b1-3)Gal(b1-4)GlcNAc(b1-2)[Gal(b1-3)GlcNAc(b1-3)Gal(b1-4)GlcNAc(b1-6)]Man(a1-6)[Gal(b1-3)GlcNAc(b1-3)Gal(b1-4)GlcNAc(b1-2)Man(a1-3)]Man(b1-4)GlcNAc(b1-4)[Fuc(a1-6)]GlcNAc
How it was run: as §1

[17] = molecular target: Gal(b1-3)GlcNAc(b1-3)Gal(b1-4)GlcNAc(b1-3)Gal(b1-4)GlcNAc(b1-2)[Gal(b1-3)GlcNAc(b1-3)Gal(b1-4)GlcNAc(b1-3)Gal(b1-4)GlcNAc(b1-6)]Man(a1-6)[Gal(b1-3)GlcNAc(b1-3)Gal(b1-4)GlcNAc(b1-3)Gal(b1-4)GlcNAc(b1-2)Man(a1-3)]Man(b1-4)GlcNAc(b1-4)[Fuc(a1-6)]GlcNAc
How it was run: as §1

[18] = molecular target: Gal(b1-3)GlcNAc(b1-3)Gal(b1-4)GlcNAc(b1-6)[Gal(b1-3)GlcNAc(b1-3)]Gal(b1-4)Glc
How it was run: as §1

[19] = molecular target: Gal(b1-3)GlcNAc(b1-3)Gal(b1-4)[Fuc(a1-3)]GlcNAc
How it was run: as §1

[20] = molecular target: Gal(b1-3)GlcNAc(b1-3)Gal(b1-4)[Fuc(a1-3)]GlcNAc(b1-6)[Gal(b1-3)GlcNAc(b1-3)]Gal(b1-4)Glc
How it was run: as §1

[21] = molecular target: Gal(b1-3)GlcNAc(b1-3)GalNAc
How it was run: as §1

[22] = molecular target: Gal(b1-3)GlcNAc(b1-6)Gal(b1-4)GlcNAc
How it was run: as §1

[23] = molecular target: Gal(b1-3)GlcNAc(b1-6)GalNAc
How it was run: as §1

[24] = molecular target: Gal(b1-3)GlcNAc(b1-6)[Gal(b1-3)]GalNAc
How it was run: as §1

Gal(b1-3)GlcNAc6S = molecular target: Gal(b1-3)GlcNAc6S
How it was run: as §1

[25] = molecular target: Gal(b1-3)[Fuc(a1-4)]GlcNAc
How it was run: as §1

[26] = molecular target: Gal(b1-3)[Fuc(a1-4)]GlcNAc(b1-2)Man
How it was run: as §1

[27] = molecular target: Gal(b1-3)[Fuc(a1-4)]GlcNAc(b1-2)Man(a1-3)[Gal(b1-3)[Fuc(a1-4)]GlcNAc(b1-2)Man(a1-6)]Man(b1-4)GlcNAc(b1-4)[Fuc(a1-6)]GlcNAc
How it was run: as §1

[28] = molecular target: Gal(b1-3)[Fuc(a1-4)]GlcNAc(b1-3)Gal(b1-3)[Fuc(a1-4)]GlcNAc
How it was run: as §1

[29] = molecular target: Gal(b1-3)[Fuc(a1-4)]GlcNAc(b1-3)Gal(b1-4)[Fuc(a1-3)]GlcNAc
How it was run: as §1

[30] = molecular target: Gal(b1-3)[Fuc(a1-4)]GlcNAc(b1-6)GalNAc
How it was run: as §1

[31] = molecular target: Gal(b1-3)[GlcNAc(b1-6)]GalNAc
How it was run: as §1

[32] = molecular target: Gal(b1-3)[Neu5Ac(a2-6)]GalNAc
How it was run: as §1

[33] = molecular target: Gal(b1-3)[Neu5Ac(a2-6)]GlcNAc(b1-4)Gal(b1-4)Glc
How it was run: as §1

[34] = molecular target: Gal(b1-3)[Neu5Ac(b2-6)]GalNAc
How it was run: as §1

Gal(b1-4)Gal = molecular target: Gal(b1-4)Gal
How it was run: as §1

[35] = molecular target: Gal(b1-4)GalNAc(a1-3)[Fuc(a1-2)]Gal(b1-4)GlcNAc
How it was run: as §1

B1: Actd5 (Actinidia), P84527 (protein)
chain: ISSCNGPCRDLNDCDGQLICIKGKCNDDPQVGTHICRGTTHSHQPGGCKPSGTLTCRGKSYPTYDCSPPVTSSTPAKLTNNDFSEGGDDGGPSECDESYHNNNERIVALSTGWYNGGSRCGKMIRITASNGKSVSAKVVDECDSRHGCDKEHAGQPPCRNNIVDGSNAVWSALGLDKNVGVVDITWSMA
glycan array binding signal (z-score) (Gal(a1-6)Glc): -0.59 | glycan array binding signal (z-score) (Gal(b1-2)Gal): -0.531 | glycan array binding signal (z-score) (Gal(b1-3)Gal): 0.469 | glycan array binding signal (z-score) (Gal(b1-3)Gal(b1-4)GlcNAc): 0.152 | glycan array binding signal (z-score) (Gal(b1-3)GalNAc): -0.497 | glycan array binding signal (z-score) [1]: -0.318 | glycan array binding signal (z-score) [2]: 0.028 | glycan array binding signal (z-score) (Gal(b1-3)GalNAc(b1-3)Gal): -0.105 | glycan array binding signal (z-score) [3]: 0.214 | glycan array binding signal (z-score) [4]: -0.526 | glycan array binding signal (z-score) [5]: -0.202 | glycan array binding signal (z-score) (Gal(b1-3)GlcNAc): -0.444 | glycan array binding signal (z-score) [6]: 0.53 | glycan array binding signal (z-score) [7]: 0.179 | glycan array binding signal (z-score) (Gal(b1-3)GlcNAc(b1-2)Man): 0.719 | glycan array binding signal (z-score) [8]: 0.859 | glycan array binding signal (z-score) [9]: -0.457 | glycan array binding signal (z-score) [10]: -0.559 | glycan array binding signal (z-score) [11]: 0.722 | glycan array binding signal (z-score) [12]: -0.253 | glycan array binding signal (z-score) [13]: -1.27 | glycan array binding signal (z-score) [14]: -0.331 | glycan array binding signal (z-score) [15]: 0.74 | glycan array binding signal (z-score) [16]: 1.28 | glycan array binding signal (z-score) [17]: 0.053 | glycan array binding signal (z-score) [18]: 0.823 | glycan array binding signal (z-score) [19]: 0.157 | glycan array binding signal (z-score) [20]: -0.679 | glycan array binding signal (z-score) [21]: 0.675 | glycan array binding signal (z-score) [22]: -0.528 | glycan array binding signal (z-score) [23]: -0.821 | glycan array binding signal (z-score) [24]: -1.04 | glycan array binding signal (z-score) (Gal(b1-3)GlcNAc6S): 0.781 | glycan array binding signal (z-score) [25]: -0.318 | glycan array binding signal (z-score) [26]: 0.065 | glycan array binding signal (z-score) [27]: 0.077 | glycan array binding signal (z-score) [28]: -0.594 | glycan array binding signal (z-score) [29]: -0.851 | glycan array binding signal (z-score) [30]: 0.03 | glycan array binding signal (z-score) [31]: -0.2 | glycan array binding signal (z-score) [32]: -1.12 | glycan array binding signal (z-score) [33]: -0.017 | glycan array binding signal (z-score) [34]: -0.552 | glycan array binding signal (z-score) (Gal(b1-4)Gal): 0.566 | glycan array binding signal (z-score) [35]: -0.191
